Some entries repeat one wording, which the source may state once for all of them.
Assay: Compatibility with purification methods (gel filtration, dialysis, PDRR)

| SMILES | Compatibility with purification methods |
| --- | --- |
| COCCN1/C(=C/C=C/C=C/C=C/C2=[N+](CCCCCC(=O)ON3C(=O)CCC3=O)c3ccc(S(=O)(=O)[O-])cc3C2(C)CCCS(=O)(=O)O)C(C)(CCCS(=O)(=O)O)c2cc(S(=O)(=O)O)ccc21 (single isomer, unassigned) [755 Compound 1 (isomer 1)-NHS] | compatible with gel filtration, dialysis, and PDRR |
| COCCN1/C(=C/C=C/C=C/C=C/C2=[N+](CCCCCC(=O)ON3C(=O)CCC3=O)c3ccc(S(=O)(=O)[O-])cc3C2(C)CCCS(=O)(=O)O)C(C)(CCCS(=O)(=O)O)c2cc(S(=O)(=O)O)ccc21 (single isomer, unassigned) [755 Compound 1 (isomer 2)-NHS] | compatible with gel filtration, dialysis, and PDRR |
| COCCN1/C(=C/C=C/C2=[N+](CCCCCC(=O)O)c3ccc(S(=O)(=O)[O-])cc3C2(C)CCCS(=O)(=O)O)C(C)(CCCS(=O)(=O)O)c2cc(S(=O)(=O)O)ccc21 (stereo not drawn) [550 Compound 1, 2-{(E)-3-[1-(5-carboxypentyl)-3-methyl-5-sulfo-3-(3-sulfopropyl)-1,3-dihydro-indol-(2E)-ylidene]-propenyl}-1-(2-methoxy-ethyl)-3-methyl-5-sulfo-3-(3-sulfo-propyl)-3H-indolium] | compatible with gel filtration and Pierce Dye Removal Resin (PDRR) |
| COCC[N+]1=C(/C=C/C=C/C=C2/N(CCCCCC(=O)O)c3ccc(S(=O)(=O)O)cc3C2(C)CCCS(=O)(=O)O)C(C)(CCCS(=O)(=O)O)c2cc(S(=O)(=O)O)ccc21.[Na+].[Na+].[Na+] (stereo not drawn) [650 Compound 1, 2-{(1E,3E)-5-[1-(5-Carboxypentyl)-3-methyl-5-sulfo-3-(3-sulfopropyl)-1,3-dihydro-indol-(2E)-ylidene]-penta-1,3-dienyl}-1-(2-methoxy-ethyl)-3-methyl-5-sulfo-3-(3-sulfopropyl)-3H-indolium tri sodium salt] | compatible with gel filtration and PDRR |
| COCCOCC[N+]1=C(/C=C/C=C/C=C2/N(CCCCCC(=O)O)c3ccc(S(=O)(=O)O)cc3C2(C)CCCS(=O)(=O)O)C(C)(CCCS(=O)(=O)O)c2cc(S(=O)(=O)O)ccc21.[Na+].[Na+].[Na+] (stereo not drawn) [650 Compound 2, 2-{(1E,3E)-5-[1-(5-carboxypentyl)-3-methyl-5-sulfo-3-(3-sulfopropyl)-1,3-dihydroindol-(2E)-ylidene]-penta-1,3-dienyl}-1-[2-(2-methoxy-ethoxy)-ethyl]-3-methyl-5-sulfo-3-(3-sulfopropyl)-3H-indolium tri sodium salt] | compatible with gel filtration and PDRR |
| COCCOCCOCC[N+]1=C(/C=C/C=C/C=C2/N(CCCCCC(=O)O)c3ccc(S(=O)(=O)O)cc3C2(C)CCCS(=O)(=O)O)C(C)(CCCS(=O)(=O)O)c2cc(S(=O)(=O)O)ccc21.[Na+].[Na+].[Na+] (stereo not drawn) [650 Compound 3, 2-{(1E,3E)-5-[1-(5-carboxypentyl)-3-methyl-5-sulfo-3-(3-sulfopropyl)-1,3-dihydro-indol-(2E)-ylidene]-penta-1,3-dienyl}-1-{2-[2-(2-methoxy-ethoxy)-ethoxy]-ethyl}-3-methyl-5-sulfo-3-(3-sulfopropyl)-3H-indolium tri sodium salt] | compatible with gel filtration and PDRR |

— patent publication US10053447B2, “Fluorescent compounds” (Pierce Biotechnology, Inc, priority 2010, dated 2018)
